In all, about 390,000 compounds went through this assay and about 4,000 (1%) were called active. The shares of active, inactive and inconclusive entries below differ from those in the screen. Calls come from the whole dose curve; as a rule, active = well fitted inhibition curve with a large enough effect; inconclusive = small, poorly fitted or top-dose-only effect, or another doubt; inactive = no such curve, though single readings can be large or run the other way. Potencies of inconclusive entries are doubtful fits and often do not repeat.
Molecular target: DNA polymerase iota (Homo sapiens) (UniProt Q9UNA4)
Test: qHTS for Inhibitors of Polymerase Iota
Details: Pol iota fluorescent replication assay, 10 min; series mostly up to 115 µM
Method in brief: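 Pol iota at 10 nM preincubated 15 min with compounds at room temperature; reaction started with fluorescent substrate, 50 nM final. Fluorescence read kinetically at 0 and 10 min; buffer-only wells as negative control.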
Potency is the fitted concentration of half-maximal effect.

By UniProt entry, the sequences of proteins in these tests, tags left out. Where a name states a change or a piece, a line headed by the entry shows the natural chain unless it says otherwise.
UniProt Q9UNA4: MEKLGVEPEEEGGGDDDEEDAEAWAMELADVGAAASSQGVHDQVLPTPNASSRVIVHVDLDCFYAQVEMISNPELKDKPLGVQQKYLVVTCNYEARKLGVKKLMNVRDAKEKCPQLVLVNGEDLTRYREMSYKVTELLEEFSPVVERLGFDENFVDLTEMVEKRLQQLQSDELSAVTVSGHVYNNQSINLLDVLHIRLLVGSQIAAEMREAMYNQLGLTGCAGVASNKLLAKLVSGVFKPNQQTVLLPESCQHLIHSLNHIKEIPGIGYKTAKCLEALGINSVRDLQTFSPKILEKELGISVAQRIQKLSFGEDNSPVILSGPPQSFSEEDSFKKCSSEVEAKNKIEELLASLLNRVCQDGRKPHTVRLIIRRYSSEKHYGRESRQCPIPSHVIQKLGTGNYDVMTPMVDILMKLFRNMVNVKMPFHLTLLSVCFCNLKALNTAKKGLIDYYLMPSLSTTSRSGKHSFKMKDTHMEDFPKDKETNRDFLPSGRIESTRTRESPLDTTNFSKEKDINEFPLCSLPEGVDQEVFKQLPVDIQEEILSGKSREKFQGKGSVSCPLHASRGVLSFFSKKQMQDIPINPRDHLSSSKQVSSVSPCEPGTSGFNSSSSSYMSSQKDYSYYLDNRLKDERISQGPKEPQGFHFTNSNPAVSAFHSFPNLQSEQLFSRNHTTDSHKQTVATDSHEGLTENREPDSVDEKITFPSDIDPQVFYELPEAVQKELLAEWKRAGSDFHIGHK

| Compound | Potency |
| --- | --- |
| O=C(NCc1ccco1)C(Cc1ccccc1)NS(=O)(=O)c1cccc2nsnc12 (stereo unspecified) | inconclusive: 35.5 µM [inhibitor, partial curve, poor fit] |
| CSc1ccccc1C(=O)NC(C)c1ccc(-n2ccnc2)cc1 (stereo unspecified) | inactive |
| Cc1cc(/C=N/NC(=O)COc2cccc3cccnc23)c(C)n1-c1ccc(O)cc1 | inactive |
| COc1ccccc1NC(=O)Cn1nnc(C(=O)NCCc2ccccc2)c1N | inconclusive: 28.2 µM [inhibitor, partial curve, poor fit] |
| O=C1CN(C(=O)c2ccc(S(=O)(=O)N3CCCCC3)cc2)C(c2ccc(F)cc2)c2cc(Br)ccc2N1 (stereo unspecified) | inactive |
| C=C1CC(COc2ccc3c(C)c(Cl)c(=O)oc3c2)(c2ccccc2)OC1=O (stereo unspecified) | inconclusive: 28.2 µM [inhibitor, partial curve, poor fit] |
| Cc1ccc(OCC(=O)Nc2ccc3nc(SCC(=O)N4CCOCC4)sc3c2)cc1C | inactive |
| CCN(CC)C(=O)c1sc2c(c1C)c(=O)n(-c1ccc(C)c(C)c1)c(=O)n2Cc1cccc(Cl)c1 | inconclusive: 89.1 µM [inhibitor, partial curve, poor fit] |
| COc1ccc(NC(=O)COC(=O)CN2C(=O)C3CCCCC3C2=O)cc1OC (stereo unspecified) | inconclusive: 1.26 µM [inhibitor, partial curve, poor fit] |
| O=C(Cc1cc(=O)oc2cc(O)ccc12)N[C@@H](Cc1c[nH]c2ccccc12)C(=O)O | inconclusive: 11.2 µM [inhibitor, partial curve, poor fit] |
| Nc1cccc2c1C(=O)N(C(=O)/C=C/c1ccc(F)cc1)C2=O | inconclusive: 3.98 µM [inhibitor, partial curve, poor fit] |
| Cc1ccc2nc(COc3cccc(NC(=O)c4cccc(Cl)c4)c3)cc(=O)n2c1 | active: 89.1 µM |
| Cc1ccc(CCNC(=O)c2ccc(CS(=O)(=O)Cc3cccc(C)c3)o2)cc1 | inconclusive: 89.1 µM [inhibitor, single point] |
| O=S(=O)(c1ccc(Cl)cc1)N1CCN=C1SCc1cccnc1 | inconclusive: 79.4 µM [inhibitor, partial curve] |
| CCCCCC(=O)N(c1ccc(OCC)cc1)S(=O)(=O)c1ccc2c(c1)n(C)c(=O)n2C | inactive |
| CC(C)(C)C(=O)Nc1cccc(OC(F)(F)C(F)Cl)c1 (stereo unspecified) | inactive |
| O=c1c2ccccc2ncn1-c1ccc(Cl)c(Cl)c1 | inconclusive: 89.1 µM [inhibitor, single point] |
| CC(=O)OCCNc1cc(SCc2ccco2)c2nonc2c1[N+](=O)[O-] | active: 17.8 µM |
| Cc1cc(C)cc(C(=O)OCC(=O)NCc2ccco2)c1 | inconclusive: 20 µM [inhibitor, full curve] |
| N#C/C(=C\c1ccccc1)C(=O)NNS(=O)(=O)c1ccc(Br)cc1 | inconclusive: 39.8 µM [inhibitor, single point] |
| CC(Sc1nnc(Cc2cccs2)n1C1CCCCC1)C(=O)N1CCc2ccccc21 (stereo unspecified) | inconclusive: 20 µM [inhibitor, partial curve, poor fit] |

2 of the compounds above, bar-delimited.
Compound | Potency
CSc1ccccc1C(=O)NC(C)c1ccc(-n2ccnc2)cc1 (stereo unspecified) | inactive
Cc1cc(/C=N/NC(=O)COc2cccc3cccnc23)c(C)n1-c1ccc(O)cc1 | inactive

Carrying on.

| Compound | Potency |
| --- | --- |
| COc1ccc2c(c1)C(SCC(=O)NCCc1ccc(Cl)cc1)CC(C)(C)O2 (stereo unspecified) | inconclusive: 11.2 µM [inhibitor, partial curve, poor fit] |
| O=c1c2cn[nH]c2nc(SCc2ccccc2F)n1-c1ccc(Br)cc1 | inconclusive: 28.2 µM [inhibitor, partial curve, poor fit] |
| CC(OC(=O)c1oc2ccccc2c1CSC1CCCCC1)C(=O)NC(N)=O (stereo unspecified) | inactive |
| Cc1cc(-c2cc(C(=O)NC3CCCC3)on2)nc(NC2CCCC2)n1 | inconclusive: 79.4 µM [inhibitor, single point] |
| COc1ccc(C)cc1S(=O)(=O)n1ccnc1C | inconclusive: 100 µM [inhibitor, single point] |
| COc1ccc(Cl)cc1-c1nc(-c2ccc(NC(=O)c3cccs3)cc2)no1 | inconclusive: 20 µM [inhibitor, single point] |
| Cc1noc(/C=C/N(C)C)c1S(=O)(=O)N1CCCC(C(=O)NCCC2=CCCCC2)C1 (stereo unspecified) | inconclusive: 89.1 µM [inhibitor, partial curve, poor fit] |
| O=C1c2cccc3cccc(c23)C(=O)N1c1ccc2ncccc2c1 | inconclusive: 17.8 µM [inhibitor, partial curve, poor fit] |
| Cc1nnc2sc(-c3cccc(NC(=O)c4cccnc4)c3)nn12 | inconclusive: 100 µM [inhibitor, single point] |
| c1ccc(CCN2CN=C(Nc3nc4ccccc4s3)NC2)cc1 | inconclusive: 70.8 µM [inhibitor, partial curve, poor fit] |
| CCc1ccc(NC(=O)C2CCN(S(=O)(=O)c3c(C)noc3/C=C/c3ccco3)CC2)cc1 | inconclusive: 79.4 µM [inhibitor, single point] |
| S=c1[nH]nc(CSc2nc3ccccc3s2)n1C1CCCCC1 | inconclusive: 79.4 µM [inhibitor, partial curve, poor fit] |
| COc1ccc(-c2nc3cc(C(C)C)ccc3o2)cc1NC(=O)c1ccc(C)c(Cl)c1 | inactive |
| COc1ccc(NC(=O)c2cc(S(=O)(=O)NCCC3=CCCCC3)ccc2F)cc1 | inactive |
| Cc1cccc(OCC(=O)Nc2ccc3oc(-c4ccccc4F)nc3c2)c1 | inconclusive: 50.1 µM [inhibitor, partial curve, poor fit] |
| CC(C)(C)OC(=O)CNC(=O)c1nc[nH]c1C(=O)N1CCNCC1 | inconclusive: 14.1 µM [inhibitor, partial curve, poor fit] |
| CCC(=O)c1cc2c(cc1NC(=O)c1ccc(C)cc1)OCCO2 | inconclusive: 50.1 µM [inhibitor, partial curve] |
| COc1ccc(-c2csc(Nc3cc(C)ccn3)n2)cc1C | inconclusive: 56.2 µM [inhibitor, partial curve, poor fit] |
| O=C(C[n+]1ccccc1Br)c1ccc(O)c(O)c1 | inactive |
| CNc1nc(OC)nc(N2CCOCC2)n1 | inconclusive: 8.91 µM [inhibitor, single point] |
